Measurements reported in PubChem BioAssay AID1053208 (Peter MacCallum Cancer Centre, 2014)
Purpose: 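Find knock-downs that sensitise mouse osteosarcoma cells to doxorubicin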 (primary screen). Cells: mouse osteosarcoma cells, early-passage culture from an engineered mouse model of fibroblastic bone tumour. Reagents: siRNA pool against mouse genes, 40 nM. Timing: about 120 h (48 h before drug, then 72 h with drug). Challenge: doxorubicin 100 nM for 72 h, roughly 30-40% inhibitory dose. Read-out: 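Viability read as ATP luminescence after 72 h of 100 nM doxorubicin or none, duplicate wells averaged, scaled to non-targeting siRNA, then expressed as robust z-scores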. Reading the numbers: viability z-score with doxorubicin and doxorubicin viability vs non-targeting: higher = more viable cells under doxorubicin; viability z-score without drug: higher = more viable cells with knock-down alone; z-score of drug to no-drug ratio: higher = less drug sensitisation by knock-down. Hit rule: 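a pool counts as active when its viability z-score with doxorubicin is -2 or below and its z-score without drug lies between -2 and 2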.
In all, the deposit lists about 17,000 reagents; shown is a random part of them. In the full data, 788 (4.7%) got an active call. 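Calls rest on z-score classes alone; an extra cut-off of viability at most 70% of control was not applied to them.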 The numbers tell different reagents against one gene apart. No sequences are given here.

| gene knocked down | reagent no. | combined z-score class | viability z-score with doxorubicin | viability z-score without drug | z-score of drug to no-drug ratio | doxorubicin viability vs non-targeting | Outcome |
| --- | --- | --- | --- | --- | --- | --- | --- |
| Xlr (X-linked lymphocyte-regulated) | 1 | no change with or without drug | -1.69 | -1.52 | -0.67 | 0.79 | inactive |
| Vash1 (vasohibin 1) | 1 | no change with or without drug | 0.9 | 1.85 | -0.22 | 1.02 | inactive |
| Hgh1 (HGH1 cochaparone) | 1 | no change with or without drug | 0.67 | 0.17 | 0.67 | 1 | inactive |
| Ankrd54 (ankyrin repeat domain 54) | 1 | low cell count with doxorubicin only | -2.36 | -0.34 | -2.25 | 0.73 | active |
| Usp9x (ubiquitin specific peptidase 9, X chromosome) | 1 | high cell count without drug only | 0.22 | 2.36 | -1.12 | 0.96 | inactive |
| Arhgdig (Rho GDP dissociation inhibitor gamma) | 1 | low cell count with doxorubicin only | -2.25 | -0.84 | -1.8 | 0.74 | active |
| Adam29 (a disintegrin and metallopeptidase domain 29) | 1 | no change with or without drug | -1.01 | -1.01 | -0.22 | 0.85 | inactive |
| Zfp78 (zinc finger protein 78) | 1 | no change with or without drug | -0.22 | 0.51 | -0.45 | 0.92 | inactive |
| A330008L17Rik (RIKEN cDNA A330008L17 gene) | 1 | no change with or without drug | 0.67 | -0.67 | 1.35 | 1 | inactive |
| Amy1 (amylase 1, salivary) | 1 | no change with or without drug | -0.45 | -0.51 | 0 | 0.9 | inactive |
| Mki67 (antigen identified by monoclonal antibody Ki 67) | 1 | no change with or without drug | -0.11 | -1.01 | 0.67 | 0.93 | inactive |
| Sez6l2 (seizure related 6 homolog like 2) | 1 | no change with or without drug | 0.11 | 0.51 | -0.11 | 0.95 | inactive |
| Msantd5l (Myb/SANT DNA binding domain containing 5 like) | 1 | no change with or without drug | -0.22 | -0.51 | 0.22 | 0.92 | inactive |
| Slco4a1 | 1 | no change with or without drug | 0.67 | 0 | 0.79 | 1 | inactive |
| Igtp (interferon gamma induced GTPase) | 1 | no change with or without drug | -1.12 | -0.51 | -0.79 | 0.84 | inactive |
| Trim39 (tripartite motif-containing 39) | 1 | no change with or without drug | -0.45 | 0.17 | -0.45 | 0.9 | inactive |
| P2rx7 (purinergic receptor P2X, ligand-gated ion channel, 7) | 1 | no change with or without drug | 0.56 | -0.17 | 0.79 | 0.99 | inactive |
| Kcnj4 (potassium inwardly-rectifying channel, subfamily J, member 4) | 1 | no change with or without drug | 0.34 | -0.17 | 0.56 | 0.97 | inactive |
| Slc2a1 | 1 | no change with or without drug | 0.67 | 1.01 | 0.11 | 1 | inactive |
| Accs (1-aminocyclopropane-1-carboxylate synthase (inactive)) | 1 | no change with or without drug | 1.12 | -0.84 | 2.02 | 1.04 | inactive |
| Or13a17 (olfactory receptor family 13 subfamily A member 17) | 1 | no change with or without drug | -1.57 | -0.51 | -1.24 | 0.8 | inactive |
| Or6c217 (olfactory receptor family 6 subfamily C member 217) | 1 | low cell count with and without drug | -2.92 | -3.54 | -0.67 | 0.68 | inactive |
| Pramel4 (PRAME like 4) | 1 | no change with or without drug | 0.22 | -0.51 | 0.67 | 0.96 | inactive |
| Pramel4 (PRAME like 4) | 2 | no change with or without drug | 0.34 | 0.51 | 0.11 | 0.97 | inactive |
| Rps12 (ribosomal protein S12) | 1 | low cell count with and without drug | -5.62 | -5.06 | -3.37 | 0.44 | inactive |
| Cacna1d (calcium channel, voltage-dependent, L type, alpha 1D subunit) | 1 | no change with or without drug | -0.9 | 0.84 | -1.35 | 0.86 | inactive |
| Or5m13b (olfactory receptor family 5 subfamily M member 13B) | 1 | no change with or without drug | -0.45 | 0.84 | -0.9 | 0.9 | inactive |
| Jmy (junction-mediating and regulatory protein) | 1 | no change with or without drug | -1.8 | -0.51 | -1.46 | 0.78 | inactive |
| Crygb (crystallin, gamma B) | 1 | no change with or without drug | -0.45 | 1.18 | -1.12 | 0.9 | inactive |
| Cck (cholecystokinin) | 1 | no change with or without drug | 0.45 | -0.34 | 0.79 | 0.98 | inactive |
| Sstr5 (somatostatin receptor 5) | 1 | no change with or without drug | -1.01 | -0.67 | -0.56 | 0.85 | inactive |

9 entries from above in another layout:
gene knocked down | reagent no. | combined z-score class | viability z-score with doxorubicin | viability z-score without drug | z-score of drug to no-drug ratio | doxorubicin viability vs non-targeting | Outcome
Vash1 (vasohibin 1) | 1 | no change with or without drug | 0.9 | 1.85 | -0.22 | 1.02 | inactive
Hgh1 (HGH1 cochaparone) | 1 | no change with or without drug | 0.67 | 0.17 | 0.67 | 1 | inactive
Ankrd54 (ankyrin repeat domain 54) | 1 | low cell count with doxorubicin only | -2.36 | -0.34 | -2.25 | 0.73 | active
Usp9x (ubiquitin specific peptidase 9, X chromosome) | 1 | high cell count without drug only | 0.22 | 2.36 | -1.12 | 0.96 | inactive
Arhgdig (Rho GDP dissociation inhibitor gamma) | 1 | low cell count with doxorubicin only | -2.25 | -0.84 | -1.8 | 0.74 | active
Adam29 (a disintegrin and metallopeptidase domain 29) | 1 | no change with or without drug | -1.01 | -1.01 | -0.22 | 0.85 | inactive
Zfp78 (zinc finger protein 78) | 1 | no change with or without drug | -0.22 | 0.51 | -0.45 | 0.92 | inactive
A330008L17Rik (RIKEN cDNA A330008L17 gene) | 1 | no change with or without drug | 0.67 | -0.67 | 1.35 | 1 | inactive
Amy1 (amylase 1, salivary) | 1 | no change with or without drug | -0.45 | -0.51 | 0 | 0.9 | inactive

The list goes on.
| gene knocked down | reagent no. | combined z-score class | viability z-score with doxorubicin | viability z-score without drug | z-score of drug to no-drug ratio | doxorubicin viability vs non-targeting | Outcome |
| --- | --- | --- | --- | --- | --- | --- | --- |
| Cort (cortistatin) | 1 | no change with or without drug | 1.69 | 0.84 | 1.24 | 1.09 | inactive |
| Trim54 (tripartite motif-containing 54) | 1 | no change with or without drug | -1.57 | -0.17 | -1.46 | 0.8 | inactive |
| Tgif2 (TGFB-induced factor homeobox 2) | 1 | low cell count with doxorubicin only | -2.25 | -1.52 | -1.35 | 0.74 | active |
| Ptch1 (patched 1) | 1 | no change with or without drug | -0.22 | 0.51 | -0.45 | 0.92 | inactive |
| Dtd2 (D-tyrosyl-tRNA deacylase 2) | 1 | low cell count without drug only | -1.35 | -2.87 | 0.79 | 0.82 | inactive |
| Pfkm (phosphofructokinase, muscle) | 1 | no change with or without drug | 0.45 | -0.67 | 1.12 | 0.98 | inactive |
| Or4c103 (olfactory receptor family 4 subfamily C member 103) | 1 | no change with or without drug | -1.8 | -0.51 | -1.46 | 0.78 | inactive |
| Or8d4 (olfactory receptor family 8 subfamily D member 4) | 1 | no change with or without drug | -0.56 | -0.51 | -0.11 | 0.89 | inactive |
| Pde4c (phosphodiesterase 4C, cAMP specific) | 1 | no change with or without drug | 0.45 | -0.84 | 1.24 | 0.98 | inactive |
| Ppp1r42 (protein phosphatase 1, regulatory subunit 42) | 1 | no change with or without drug | 0.22 | -0.17 | 0.45 | 0.96 | inactive |
| Zfp689 (zinc finger protein 689) | 1 | no change with or without drug | 0 | 0.51 | -0.22 | 0.94 | inactive |
| Trat1 (T cell receptor associated transmembrane adaptor 1) | 1 | no change with or without drug | -1.12 | -1.18 | -0.34 | 0.84 | inactive |
| Gpr171 (G protein-coupled receptor 171) | 1 | no change with or without drug | 0.11 | 0.17 | 0.11 | 0.95 | inactive |
| Trav3-3 (T cell receptor alpha variable 3-3) | 1 | no change with or without drug | -1.01 | -0.17 | -0.9 | 0.85 | inactive |
| Serpinb9f (serine (or cysteine) peptidase inhibitor, clade B, member 9f) | 1 | no change with or without drug | -0.45 | 0.67 | -0.79 | 0.9 | inactive |
| Agrn (agrin) | 1 | no change with or without drug | -0.67 | 0.17 | -0.67 | 0.88 | inactive |
| Gins4 (GINS complex subunit 4) | 1 | no change with or without drug | 0.22 | 0.84 | -0.22 | 0.96 | inactive |
| Gp9 (glycoprotein 9 platelet) | 1 | no change with or without drug | 0.67 | 0.84 | 0.22 | 1 | inactive |
| Pax6 (paired box 6) | 1 | no change with or without drug | -0.11 | 0.51 | -0.34 | 0.93 | inactive |
| Dhrs3 (dehydrogenase/reductase 3) | 1 | no change with or without drug | 0.34 | 1.18 | -0.34 | 0.97 | inactive |
| Pcdha11 (protocadherin alpha 11) | 1 | low cell count with doxorubicin only | -2.25 | 0.17 | -2.36 | 0.74 | active |
| Zcchc14 (zinc finger, CCHC domain containing 14) | 1 | no change with or without drug | 0 | -0.51 | 0.45 | 0.94 | inactive |
| Hnrnpr (heterogeneous nuclear ribonucleoprotein R) | 1 | no change with or without drug | 0.45 | 0.51 | 0.22 | 0.98 | inactive |
| Or4a74 (olfactory receptor family 4 subfamily A member 74) | 1 | no change with or without drug | 1.35 | 0.84 | 0.9 | 1.06 | inactive |
| Tmem176a (transmembrane protein 176A) | 1 | no change with or without drug | 0 | 0.84 | -0.45 | 0.94 | inactive |
| H4c14 (H4 clustered histone 14) | 1 | no change with or without drug | -0.9 | -1.18 | 0 | 0.86 | inactive |
| Xkr6 (XK related 6) | 1 | no change with or without drug | 0.67 | -0.17 | 0.9 | 1 | inactive |
| A630001G21RIK | 1 | no change with or without drug | -0.22 | -0.84 | 0.45 | 0.92 | inactive |
| Kcne4 | 1 | no change with or without drug | -1.12 | 0.51 | -1.35 | 0.84 | inactive |
| Ssbp4 (single stranded DNA binding protein 4) | 1 | no change with or without drug | 0.56 | 0.51 | 0.34 | 0.99 | inactive |
| Atp10a (ATPase, class V, type 10A) | 1 | no change with or without drug | -1.57 | 0.34 | -1.8 | 0.8 | inactive |
| Tarbp2 (TARBP2, RISC loading complex RNA binding subunit) | 1 | no change with or without drug | 0.34 | 0.51 | 0.11 | 0.97 | inactive |
